From PubChem BioAssay AID256 (DTP/NCI, 2004) come the findings set out here.

The assay has as its system CD2F1 mice, L1210 leukemia ip, survival T/C. The assay can be described thus: NCI In Vivo Anticancer Drug Screen. Data for tumor model L1210 Leukemia (intraperitoneal) in CD2F1 (CDF1) mice. To be noted: higher T/C = longer survival. The gist of the method: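 Mice carrying a transplanted tumor received test compound or vehicle alone. The value is the measurement in the treated group divided by that in the vehicle-treated control group.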

The mark [1] stands for this setting: T/C endpoint: mean survival time, dose: 50.0 mg/kg/injection, schedule: Q01DX001 (ip), vehicle: saline.
Where [2] appears, read: T/C endpoint: mean survival time, dose: 6.25 mg/kg/injection, schedule: Q01DX009 (ip), vehicle: saline with Tween-80.
The mark [3] stands for this setting: T/C endpoint: mean survival time, dose: 100.0 mg/kg/injection, schedule: Q04DX003 (ip), vehicle: saline with Tween-80.
Where [4] appears, read: T/C endpoint: mean survival time, dose: 200.0 mg/kg/injection, schedule: Q04DX003 (ip), vehicle: saline with Tween-80.
[5] abbreviates: T/C endpoint: mean survival time, dose: 400.0 mg/kg/injection, schedule: Q04DX003 (ip), vehicle: saline with Tween-80.
Setting [6] is: T/C endpoint: mean survival time, dose: 50.0 mg/kg/injection, schedule: Q01DX009 (ip), vehicle: saline with Tween-80.
[7] abbreviates: T/C endpoint: mean survival time, dose: 400.0 mg/kg/injection, schedule: Q01DX005 (ip), vehicle: saline.

The list is a part of this screen's results and no random one: it gathers tests that were run many times, whatever their T/C, doses with no T/C, and many T/C values between a quarter and a half above the control. Further doses and runs are listed elsewhere. T/C is the treated group as % of the vehicle group. Some entries give survivors of the animals treated and no T/C: the source holds a T/C of zero for them, seemingly a mark for toxic or unscored doses. Some doses without a T/C left all or most animals alive at the check, yet need not have been tolerated: the source hardly ever lists a survival T/C far under the control, and the zero likely stands for such cases as well. Counts of survivors are from the toxicity check (mostly the fifth day) where no day follows; animals may have died later. Schedules are NCI's codes, taken here to give the interval after Q, in days (D) or hours (H), and the number of doses after X. Some molecules as drawn cover several salts, stereoisomers or complexes of the source; a dose is that of the sample tested. For survival time, this PubChem deposit counts one and a half times the control or more as active, and values a quarter to a half above the control carry no call in these data; other NCI protocols may use other cut-offs. Some entries hold several experiments; their values stand side by side, smallest first. Some T/C values are followed by the survivors on the day toxicity was checked, most often the fifth; where none is given, no animal had died by that day.

On to `CSc1ncnc2c1ncn2C1OC(CO)C(O)C1O` (stereo not given), for which the T/C is 125 % of control (T/C endpoint: mean survival time, dose: 6.25 mg/kg/injection, schedule: Q01DX009 (ip), vehicle: saline); 128 % of control (T/C endpoint: mean survival time, dose: 8.0 mg/kg/injection, schedule: Q01DX009 (ip), vehicle: saline); 125 and 136 % of control (T/C endpoint: mean survival time, dose: 10.0 mg/kg/injection, schedule: Q01DX005 (ip), vehicle: saline); 146 % of control (T/C endpoint: mean survival time, dose: 16.0 mg/kg/injection, schedule: Q01DX009 (ip), vehicle: saline); 138 % of control (T/C endpoint: mean survival time, dose: 20.0 mg/kg/injection, schedule: Q01DX005 (ip), vehicle: saline); 132 % of control (T/C endpoint: mean survival time, dose: 20.0 mg/kg/injection, schedule: Q01DX007 (ip), vehicle: saline). The T/C by setting is: (T/C endpoint: mean survival time, dose: 20.0 mg/kg/injection, schedule: Q01DX009 (ip), vehicle: saline) 127 % of control; (T/C endpoint: mean survival time, dose: 20.0 mg/kg/injection, schedule: Q03DX003 (ip), vehicle: saline) 128 % of control; (T/C endpoint: mean survival time, dose: 25.0 mg/kg/injection, schedule: Q01DX009 (ip), vehicle: saline) 137 % of control; under setting [1], 128 % of control; (T/C endpoint: mean survival time, dose: 100.0 mg/kg/injection, schedule: Q01DX001 (ip), vehicle: saline) 142 % of control; (T/C endpoint: mean survival time, dose: 200.0 mg/kg/injection, schedule: Q01DX001 (ip), vehicle: saline) 132 % of control. The T/C was 149 % of control (T/C endpoint: median survival time, dose: 18.0 mg/kg/injection, schedule: Q01DX009 (ip), vehicle: saline); 134 % of control (T/C endpoint: median survival time, dose: 35.0 mg/kg/injection, schedule: Q01DX009 (ip), vehicle: saline); 114 and 146 % of control (T/C endpoint: median survival time, dose: 40.0 mg/kg/injection, schedule: Q01DX009 (ip), vehicle: saline, evaluated on day 5); 112 and 122 % of control (T/C endpoint: median survival time, dose: 40.0 mg/kg/injection, schedule: Q01DX009 (ip), vehicle: saline, evaluated on day 30); 128 % of control (T/C endpoint: median survival time, dose: 82.0 mg/kg/injection, schedule: Q01DX001 (ip), vehicle: saline with Tween-80); 140 % of control (T/C endpoint: median survival time, dose: 82.0 mg/kg/injection, schedule: Q01DX001 (ip), vehicle: saline). Also, the T/C (T/C endpoint: median survival time, dose: 123.0 mg/kg/injection, schedule: Q01DX001 (ip), vehicle: saline with Tween-80) was 141 % of control. For the same compound, the survivor count (T/C endpoint: mean survival time, dose: 80.0 mg/kg/injection, schedule: Q01DX005 (ip), vehicle: saline) was 5 of 8.
Consider `CN(C)C(=S)[S][Sn]([CH3])([CH3])[CH3]`, for which the survivor count is, setting by setting: under setting [2], 0 of 3; (T/C endpoint: mean survival time, dose: 12.5 mg/kg/injection, schedule: Q01DX009 (ip), vehicle: saline with Tween-80) 0 of 3; (T/C endpoint: mean survival time, dose: 25.0 mg/kg/injection, schedule: Q01DX009 (ip), vehicle: saline with Tween-80) 0 of 3.
Consider `NC(=S)N/N=C/c1cccc(CC(O)(C(F)(F)F)C(F)(F)F)n1`, for which the survivor count by setting is: under setting [3], 6 of 6; under setting [4], 6 of 6; under setting [5], 3 of 6.
`CCCc1ccc(C(C)=O)cc1`: the survivor count (T/C endpoint: mean survival time, dose: 300.0 mg/kg/injection, schedule: Q04DX002 (ip), vehicle: saline with Tween-80) was 1 of 3.
Take `O=C1NC(=O)/C(=C/C=C/c2ccccc2)S1`: where the note is “T/C endpoint: mean survival time, dose: 400.0 mg/kg/injection, schedule: Q01DX009 (ip), vehicle: saline with Tween-80”, the survivor count was 1 of 6.
With `C=CCSc1nc(N)nc2nc[nH]c12`, the survivor count (T/C endpoint: mean survival time, dose: 400.0 mg/kg/injection, schedule: Q04DX003 (ip), vehicle: saline sonified) is given as 4 of 6.
Consider `ClCc1c2c(cc3c1CCCC3)CCCC2`, for which the survivor count under setting [5] is 5 of 6.
As for `CCOc1ccc(Br)cc1/C=C(\C#N)c1ccc([N+](=O)[O-])cc1`, the survivor count reads like this: (T/C endpoint: mean survival time, dose: 0.78 mg/kg/injection, schedule: Q01DX009 (ip), vehicle: saline with Tween-80) 6 of 6; (T/C endpoint: mean survival time, dose: 1.56 mg/kg/injection, schedule: Q01DX009 (ip), vehicle: saline with Tween-80) 6 of 6; (T/C endpoint: mean survival time, dose: 3.13 mg/kg/injection, schedule: Q01DX009 (ip), vehicle: saline with Tween-80) 6 of 6; under setting [2], 6 of 6.
In the case of `COc1cc(OC)c(NC(=O)Nc2ccc(NC(C)=O)cc2)cc1Cl`, the survivor count under setting [6] is given as 3 of 3; the survivor count (T/C endpoint: mean survival time, dose: 100.0 mg/kg/injection, schedule: Q01DX009 (ip), vehicle: saline with Tween-80) is 3 of 3; the survivor count (T/C endpoint: mean survival time, dose: 200.0 mg/kg/injection, schedule: Q01DX009 (ip), vehicle: saline with Tween-80) is on record as 3 of 3.
For `Nc1cc2[nH]cnc2c(=O)[nH]1`, the T/C runs as follows: (T/C endpoint: mean survival time, dose: 25.0 mg/kg/injection, schedule: Q01DX009 (ip), vehicle: suspension in saline) 126 % of control; (T/C endpoint: mean survival time, dose: 50.0 mg/kg/injection, schedule: Q01DX009 (ip), vehicle: suspension in saline) 125 and 139 % of control; (T/C endpoint: mean survival time, dose: 100.0 mg/kg/injection, schedule: Q01DX005 (ip), vehicle: saline) 125 and 127 % of control; (T/C endpoint: mean survival time, dose: 100.0 mg/kg/injection, schedule: Q01DX009 (ip), vehicle: suspension in saline) 138 and 146 % of control; (T/C endpoint: mean survival time, dose: 200.0 mg/kg/injection, schedule: Q01DX005 (ip), vehicle: saline) 133 and 149 % of control; under setting [7], 147 % of control [2 of 3 alive]. For the same compound, the survivor count reads like this: under setting [7], 0 of 3; (T/C endpoint: mean survival time, dose: 400.0 mg/kg/injection, schedule: Q01DX009 (ip), vehicle: suspension in saline) 3 of 6.
For `[CH3][Sn]1([CH3])[O]C2C(CO)OC(n3ccc(=O)[nH]c3=O)C2[O]1` (stereo not given), the survivor count reads like this: (T/C endpoint: mean survival time, dose: 100.0 mg/kg/injection, schedule: Q01DX005 (ip), vehicle: other) 0 of 6; (T/C endpoint: mean survival time, dose: 200.0 mg/kg/injection, schedule: Q01DX005 (ip), vehicle: other) 0 of 6.
As for `CC(CC(C)O)=NCCN=C(C)CC(C)O.[Ni]` (stereo not given), the survivor count reads like this: under setting [1], 5 of 6; (T/C endpoint: mean survival time, dose: 100.0 mg/kg/injection, schedule: Q01DX001 (ip), vehicle: saline with Tween-80) 5 of 6; (T/C endpoint: mean survival time, dose: 200.0 mg/kg/injection, schedule: Q01DX001 (ip), vehicle: saline with Tween-80) 0 of 6; (T/C endpoint: mean survival time, dose: 400.0 mg/kg/injection, schedule: Q01DX001 (ip), vehicle: saline with Tween-80) 0 of 6.
As for `COc1ccc2c3csc4ccccc4c-3nc2c1`, the survivor count reads like this: (T/C endpoint: mean survival time, dose: 100.0 mg/kg/injection, schedule: Q04DX003 (ip), vehicle: acetone) 5 of 6; (T/C endpoint: mean survival time, dose: 200.0 mg/kg/injection, schedule: Q04DX003 (ip), vehicle: acetone) 1 of 6; under setting [4], 3 of 6; (T/C endpoint: mean survival time, dose: 400.0 mg/kg/injection, schedule: Q04DX003 (ip), vehicle: acetone) 0 of 6; under setting [5], 1 of 6.
For `Cc1cc(C)c(B(c2c(C)cc(C)cc2C)c2c(C)cc(C)cc2C)c(C)c1`, under setting [3], the survivor count is recorded as 6 of 6.
With `COC(=O)NC(N)=Nc1ccccc1`, the survivor count under setting [6] is listed as 3 of 3.
Turning to `O=[N+]([O-])c1ccc2ncccc2c1`, the survivor count is given as 6 of 6 (T/C endpoint: mean survival time, dose: 100.0 mg/kg/injection, schedule: Q01DX009 (ip), vehicle: other); 1 of 6 (T/C endpoint: mean survival time, dose: 200.0 mg/kg/injection, schedule: Q01DX009 (ip), vehicle: other); 0 of 6 (T/C endpoint: mean survival time, dose: 400.0 mg/kg/injection, schedule: Q01DX009 (ip), vehicle: other).
For the compound `CN(C)CCCCO`, where the note is “T/C endpoint: mean survival time, dose: 400.0 mg/kg/injection, schedule: Q04DX003 (ip), vehicle: saline”, the survivor count was 1 of 6.
For the compound `CC(=O)On1nnc2ccccc2c1=O`, where the note is “T/C endpoint: mean survival time, dose: 200.0 mg/kg/injection, schedule: Q01DX001 (ip), vehicle: distilled water + Tween-80”, the survivor count was 0 of 6.
In the case of `CN(C)CCCN=Cc1cc([N+](=O)[O-])ccc1O.CN(C)CCCN=Cc1cc([N+](=O)[O-])ccc1O.[Ni+2]`, the survivor count runs as follows: (T/C endpoint: mean survival time, dose: 25.0 mg/kg/injection, schedule: Q04DX002 (ip), vehicle: saline with Tween-80) 3 of 3; (T/C endpoint: mean survival time, dose: 100.0 mg/kg/injection, schedule: Q04DX002 (ip), vehicle: saline with Tween-80) 1 of 3.
